According to patent publication US11786584B2, “Peptides and combination of peptides for use in immunotherapy against prostate cancer and other cancers” (Immatics Biotechnologies GmbH, priority 2015, dated 2023):

What was measured:
[1] = tested on: prostate tumor tissues compared to a panel of normal tissues; assay: Label-free relative LC-MS quantitation of HLA-A*02 peptide presentation (presentation score); parameters: species or system human; key to Peptide Presentation: very highly over-presented on tumors compared to a panel of normal tissues (+++); highly over-presented on tumors compared to a panel of normal tissues (++); over-presented on tumors compared to a panel of normal tissues (+); conditions: for detection of the peptide on further tissues: HLA-A*02, figure legend FIG. 1A, 1D; for Peptide Presentation: HLA-A*02 peptides, tumors vs panel of normal tissues
tumor samples = assay: Absolute quantitation of peptide copies per cell by nanoLC-MS/MS; parameters: species or system human; conditions: median over tumor samples
[2] = tested on: prostate tumor tissues compared to a panel of normal tissues; assay: Label-free relative LC-MS quantitation of HLA-A*24 peptide presentation (presentation score); parameters: species or system human; key: very highly over-presented on tumors compared to a panel of normal tissues (+++); highly over-presented on tumors compared to a panel of normal tissues (++); over-presented on tumors compared to a panel of normal tissues (+); conditions: HLA-A*24 peptides; tumors vs panel of normal tissues

Substance	Peptide Presentation [1]	Copies per cell (median) (tumor samples)	Peptide Presentation [2]	other results
1 (VTAQIGIVAV; listed as Homo sapiens) [compound 1]	+++	+ (<100 = +)		detection of the peptide on further tissues [1]: also found on small cell lung cancer
2 (SMLGEEIQL; listed as Homo sapiens) [compound 2]	+++	++ (> = 100 = ++)		
3 (HLLEDIAHV; listed as Homo sapiens) [compound 3]	+++	++ (> = 100 = ++)		
4 (ALLTFVWKL; listed as Homo sapiens) [compound 4]	+++	+++ (> = 1,000 +++)		
5 (KIFSRLIYI; listed as Homo sapiens) [compound 5]	+++	++ (> = 100 = ++)		
6 (ALLESRVNL; listed as Homo sapiens) [compound 6]	+++	+ (<100 = +)		
7 (TLLQVVGVVSV; listed as Homo sapiens) [compound 7]	+++			
8 (LLDFSLADA; listed as Homo sapiens) [compound 8]	+++			
9 (GMLNEAEGKAIKL; listed as Homo sapiens) [compound 9]	++			
10 (TLWRGPVVV; listed as Homo sapiens) [compound 10]	+++			
11 (YLEEECPAT; listed as Homo sapiens) [compound 11]	+++			
12 (SLNEEIAFL; listed as Homo sapiens) [compound 12]	+++			
14 (KMDEASAQLL; listed as Homo sapiens) [compound 14]	+++			
15 (KMDEASAQLLA; listed as Homo sapiens) [compound 15]	+++			
17 (RLGIKPESV; listed as Homo sapiens) [compound 17]	++			
18 (GLSEFTEYL; listed as Homo sapiens) [compound 18]	+++			
19 (LLPPPPLLA; listed as Homo sapiens) [compound 19]	+++			
20 (SLLSHQVLL; listed as Homo sapiens) [compound 20]	+++			detection of the peptide on further tissues [1]: not detected on any normal tissue
21 (YLNDSLRHV; listed as Homo sapiens) [compound 21]	+++			
22 (SLYDSIAFI; listed as Homo sapiens) [compound 22]	+++			
23 (AVAGADVIITV; listed as Homo sapiens) [compound 23]	+			
24 (SYNDALLTF; listed as Homo sapiens) [compound 24]		+++ (> = 1,000 +++)	+++	
25 (IYEPYLAMF; listed as Homo sapiens) [compound 25]			+	
26 (RYADDTFTPAF; listed as Homo sapiens) [compound 26]		++ (> = 100 = ++)	+++	
27 (GYLQGLVSF; listed as Homo sapiens) [compound 27]		++++ (> = 10,000 = ++++)	+++	

Substance	Peptide Presentation [1]	Copies per cell (median) (tumor samples)	Peptide Presentation [2]	other results
28 (YYAKEIHKF; listed as Homo sapiens) [compound 28]		+++ (> = 1,000 +++)	+++	
29 (RYGSPINTF; listed as Homo sapiens) [compound 29]			+++	
30 (SYSPAHARL; listed as Homo sapiens) [compound 30]			+++	
31 (AYTSPPSFF; listed as Homo sapiens) [compound 31]			+++	
32 (PYQLNASLFTF; listed as Homo sapiens) [compound 32]			+++	
34 (AFSPDSHYLLF; listed as Homo sapiens) [compound 34]			+++	
35 (IYTRVTYYL; listed as Homo sapiens) [compound 35]			+++	
36 (RYMWINQEL; listed as Homo sapiens) [compound 36]			++	
37 (RYLQDLLAW; listed as Homo sapiens) [compound 37]			+++	
38 (VYSDKLWIF; listed as Homo sapiens) [compound 38]			++	
39 (SYIDVAVKL; listed as Homo sapiens) [compound 39]			+	
40 (RTFSPTYGL; listed as Homo sapiens) [compound 40]	++			
41 (RYLQKIEEF; listed as Homo sapiens) [compound 41]			+++	
42 (TYIGQGYII; listed as Homo sapiens) [compound 42]		++ (> = 100 = ++)	+++	
43 (AYIKNGQLF; listed as Homo sapiens) [compound 43]			+++	
44 (VYNTVSEGTHF; listed as Homo sapiens) [compound 44]			+	
45 (RYFKTPRKF; listed as Homo sapiens) [compound 45]			++	
46 (VYEEILHQI; listed as Homo sapiens) [compound 46]			++	
47 (SYTPVLNQF; listed as Homo sapiens) [compound 47]			++	
48 (AWAPKPYHKF; listed as Homo sapiens) [compound 48]			++	
50 (TLGPASFLV; listed as Homo sapiens) [compound 50]		++ (> = 100 = ++)		
54 (AYSEKVTEF; listed as Homo sapiens) [compound 54]		+++ (> = 1,000 +++)		
55 (LYFEKGEYF; listed as Homo sapiens) [compound 55]		+++ (> = 1,000 +++)		
56 (LFHPEDTGQVF; listed as Homo sapiens) [compound 56]		+++ (> = 1,000 +++)		
57 (KYADKIYSI; listed as Homo sapiens) [compound 57]		+++ (> = 1,000 +++)		
